± gives the standard deviation of the averaged measurements. The list shows a part of the results, in another mix than the full data. Most entries show no effect beyond the scatter of the controls.
Compound: Nc1ncnc2c1ncn2[C@@H]1O[C@H](COP(=O)(O)OP(=O)(O)NP(=O)(O)O)[C@@H](O)[C@H]1O [adenylyl imidodiphosphate]
Experiment: NP40-soluble protein abundance relative to vehicle (solubility fold change) (ratio); higher = more soluble protein in presence of AMP-PNP
Outline: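 Jurkat crude lysate (Dounce-homogenised) was treated with eight concentrations from 0.1 to 10 mM for 10 min at room temperature, then 3 min at 37 °C. It was solubilised with 0.8% NP40 and benzonase (60 min, 4 °C) and ultracentrifuged, and the supernatant was TMT-labelled for LC-MS/MS. Intensities were vsn-normalised, and the value is the fold change against the NP40-processed vehicle per replicate, from three independent experiments.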

Amino acid sequences for entries named in this document (tags omitted). A change or cut given only in a name is not applied to a line headed by its entry.
UniProt P56962: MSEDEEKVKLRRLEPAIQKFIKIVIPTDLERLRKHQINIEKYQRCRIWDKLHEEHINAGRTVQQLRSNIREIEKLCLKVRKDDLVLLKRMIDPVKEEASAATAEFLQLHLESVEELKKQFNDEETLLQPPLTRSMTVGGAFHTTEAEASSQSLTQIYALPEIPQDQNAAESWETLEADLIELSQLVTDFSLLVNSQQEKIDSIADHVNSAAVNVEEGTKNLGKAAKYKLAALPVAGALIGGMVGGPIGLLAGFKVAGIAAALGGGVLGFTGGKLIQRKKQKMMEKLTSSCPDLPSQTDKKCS
UniProt P61604, whole entry: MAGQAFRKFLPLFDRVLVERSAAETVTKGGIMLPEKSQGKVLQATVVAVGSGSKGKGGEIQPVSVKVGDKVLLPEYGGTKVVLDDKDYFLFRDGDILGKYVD
UniProt Q01167: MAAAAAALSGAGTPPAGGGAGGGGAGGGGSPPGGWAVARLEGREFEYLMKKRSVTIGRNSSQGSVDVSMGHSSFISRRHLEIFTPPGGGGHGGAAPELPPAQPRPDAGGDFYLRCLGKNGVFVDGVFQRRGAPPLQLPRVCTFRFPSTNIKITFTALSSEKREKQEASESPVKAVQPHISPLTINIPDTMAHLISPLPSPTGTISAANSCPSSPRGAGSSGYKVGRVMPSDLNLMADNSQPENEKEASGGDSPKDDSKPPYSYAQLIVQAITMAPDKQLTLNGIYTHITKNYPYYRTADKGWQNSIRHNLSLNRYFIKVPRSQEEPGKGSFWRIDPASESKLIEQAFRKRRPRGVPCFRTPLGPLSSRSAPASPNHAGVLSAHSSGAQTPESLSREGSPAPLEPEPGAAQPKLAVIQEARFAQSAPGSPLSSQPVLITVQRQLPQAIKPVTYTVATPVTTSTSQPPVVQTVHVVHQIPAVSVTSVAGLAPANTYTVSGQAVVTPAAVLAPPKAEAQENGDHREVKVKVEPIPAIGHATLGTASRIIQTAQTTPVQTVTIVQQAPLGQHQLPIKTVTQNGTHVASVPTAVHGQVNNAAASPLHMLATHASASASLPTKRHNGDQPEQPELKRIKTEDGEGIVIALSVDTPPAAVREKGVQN
UniProt Q03933: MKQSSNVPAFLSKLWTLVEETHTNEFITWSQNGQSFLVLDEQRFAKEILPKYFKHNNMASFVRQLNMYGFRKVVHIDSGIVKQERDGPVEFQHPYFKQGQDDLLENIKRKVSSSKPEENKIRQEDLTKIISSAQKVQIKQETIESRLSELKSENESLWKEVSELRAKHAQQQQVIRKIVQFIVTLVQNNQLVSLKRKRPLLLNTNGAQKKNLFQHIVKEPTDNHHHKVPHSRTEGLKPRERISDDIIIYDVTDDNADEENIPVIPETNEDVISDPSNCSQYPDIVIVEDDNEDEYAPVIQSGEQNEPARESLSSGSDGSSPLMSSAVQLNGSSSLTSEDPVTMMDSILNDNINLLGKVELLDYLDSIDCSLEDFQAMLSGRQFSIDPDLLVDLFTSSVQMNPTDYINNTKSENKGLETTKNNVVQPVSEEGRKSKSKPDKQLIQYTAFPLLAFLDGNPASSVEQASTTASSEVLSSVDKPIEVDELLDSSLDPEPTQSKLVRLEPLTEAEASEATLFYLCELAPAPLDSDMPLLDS
UniProt Q00688: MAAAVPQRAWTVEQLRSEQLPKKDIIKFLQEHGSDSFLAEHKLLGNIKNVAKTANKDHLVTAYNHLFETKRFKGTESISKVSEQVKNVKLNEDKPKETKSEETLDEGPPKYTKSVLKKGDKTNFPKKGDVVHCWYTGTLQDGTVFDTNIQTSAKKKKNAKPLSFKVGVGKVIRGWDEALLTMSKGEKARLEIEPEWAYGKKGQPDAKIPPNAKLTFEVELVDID
UniProt Q02040: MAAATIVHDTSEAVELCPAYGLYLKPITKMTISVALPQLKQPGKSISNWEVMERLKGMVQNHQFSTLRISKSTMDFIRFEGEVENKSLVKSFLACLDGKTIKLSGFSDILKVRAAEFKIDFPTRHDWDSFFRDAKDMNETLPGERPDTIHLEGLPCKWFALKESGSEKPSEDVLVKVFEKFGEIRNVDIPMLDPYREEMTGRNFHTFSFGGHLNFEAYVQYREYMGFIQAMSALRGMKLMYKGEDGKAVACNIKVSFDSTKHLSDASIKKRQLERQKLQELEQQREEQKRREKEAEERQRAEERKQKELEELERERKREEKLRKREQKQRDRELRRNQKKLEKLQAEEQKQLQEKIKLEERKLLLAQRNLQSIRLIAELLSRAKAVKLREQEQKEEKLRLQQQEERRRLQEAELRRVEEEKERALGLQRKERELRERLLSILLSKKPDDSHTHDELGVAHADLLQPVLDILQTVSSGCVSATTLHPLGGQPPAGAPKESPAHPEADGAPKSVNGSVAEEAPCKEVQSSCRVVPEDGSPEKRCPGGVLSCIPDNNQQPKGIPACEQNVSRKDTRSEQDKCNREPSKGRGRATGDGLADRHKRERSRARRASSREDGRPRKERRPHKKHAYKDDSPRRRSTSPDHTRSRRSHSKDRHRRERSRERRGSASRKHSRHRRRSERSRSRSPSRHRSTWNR
UniProt P62136, whole entry: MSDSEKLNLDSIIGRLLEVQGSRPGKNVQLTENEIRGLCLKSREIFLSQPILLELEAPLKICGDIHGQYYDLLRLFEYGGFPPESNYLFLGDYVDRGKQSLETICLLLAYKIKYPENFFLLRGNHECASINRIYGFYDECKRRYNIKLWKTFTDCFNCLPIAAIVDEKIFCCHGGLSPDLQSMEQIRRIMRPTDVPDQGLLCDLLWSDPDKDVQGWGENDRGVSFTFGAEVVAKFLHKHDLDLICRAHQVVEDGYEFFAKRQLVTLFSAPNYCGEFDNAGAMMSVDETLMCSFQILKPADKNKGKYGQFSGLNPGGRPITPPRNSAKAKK
UniProt Q01196, whole entry: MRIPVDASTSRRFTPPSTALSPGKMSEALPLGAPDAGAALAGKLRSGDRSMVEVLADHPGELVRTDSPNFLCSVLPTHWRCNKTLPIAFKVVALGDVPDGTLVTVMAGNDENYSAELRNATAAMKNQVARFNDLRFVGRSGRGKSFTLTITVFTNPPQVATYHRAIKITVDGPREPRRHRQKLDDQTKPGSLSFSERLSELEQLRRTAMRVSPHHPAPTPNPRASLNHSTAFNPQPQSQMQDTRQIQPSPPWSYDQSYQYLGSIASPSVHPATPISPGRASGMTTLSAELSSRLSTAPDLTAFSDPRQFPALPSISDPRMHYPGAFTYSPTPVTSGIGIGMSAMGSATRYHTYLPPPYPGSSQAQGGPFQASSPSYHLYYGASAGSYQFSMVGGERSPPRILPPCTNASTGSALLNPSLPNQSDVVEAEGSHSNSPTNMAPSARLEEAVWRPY
UniProt Q00403, whole entry: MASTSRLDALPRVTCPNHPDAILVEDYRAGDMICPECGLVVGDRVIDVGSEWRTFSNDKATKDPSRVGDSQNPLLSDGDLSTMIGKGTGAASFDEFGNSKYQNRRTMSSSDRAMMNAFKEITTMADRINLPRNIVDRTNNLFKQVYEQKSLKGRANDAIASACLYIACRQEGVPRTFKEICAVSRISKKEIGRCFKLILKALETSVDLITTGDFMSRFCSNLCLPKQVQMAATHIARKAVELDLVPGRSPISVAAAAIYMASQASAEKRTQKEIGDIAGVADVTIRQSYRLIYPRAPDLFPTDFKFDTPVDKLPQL
UniProt P63313: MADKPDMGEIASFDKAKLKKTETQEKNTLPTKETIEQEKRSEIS
UniProt P62714, whole entry: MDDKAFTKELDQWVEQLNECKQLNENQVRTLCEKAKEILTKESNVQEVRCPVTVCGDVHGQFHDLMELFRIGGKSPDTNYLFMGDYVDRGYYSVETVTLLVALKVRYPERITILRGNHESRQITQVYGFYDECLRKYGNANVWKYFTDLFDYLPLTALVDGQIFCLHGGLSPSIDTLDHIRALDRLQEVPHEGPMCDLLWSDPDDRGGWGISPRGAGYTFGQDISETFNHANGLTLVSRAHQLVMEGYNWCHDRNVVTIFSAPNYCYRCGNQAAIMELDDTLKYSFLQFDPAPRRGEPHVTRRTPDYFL
UniProt P56381: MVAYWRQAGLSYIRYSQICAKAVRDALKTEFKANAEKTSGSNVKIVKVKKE
UniProt Q01650: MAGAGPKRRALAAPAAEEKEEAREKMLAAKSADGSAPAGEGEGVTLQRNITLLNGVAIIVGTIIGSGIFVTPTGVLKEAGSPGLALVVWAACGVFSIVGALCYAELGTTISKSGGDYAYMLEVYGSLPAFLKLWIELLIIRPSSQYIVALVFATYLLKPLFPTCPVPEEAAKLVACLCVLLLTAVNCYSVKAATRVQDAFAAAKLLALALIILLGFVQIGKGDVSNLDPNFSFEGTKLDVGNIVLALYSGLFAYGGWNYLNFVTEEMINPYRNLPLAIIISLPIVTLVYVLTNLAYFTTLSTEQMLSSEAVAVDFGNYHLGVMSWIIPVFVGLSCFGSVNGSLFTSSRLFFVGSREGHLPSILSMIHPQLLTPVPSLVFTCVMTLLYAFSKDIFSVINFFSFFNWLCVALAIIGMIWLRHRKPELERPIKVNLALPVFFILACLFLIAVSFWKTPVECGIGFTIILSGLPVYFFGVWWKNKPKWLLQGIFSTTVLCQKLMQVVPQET
UniProt P62072: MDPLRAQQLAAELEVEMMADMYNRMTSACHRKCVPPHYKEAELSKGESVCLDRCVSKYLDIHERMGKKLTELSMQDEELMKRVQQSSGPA
UniProt P78406: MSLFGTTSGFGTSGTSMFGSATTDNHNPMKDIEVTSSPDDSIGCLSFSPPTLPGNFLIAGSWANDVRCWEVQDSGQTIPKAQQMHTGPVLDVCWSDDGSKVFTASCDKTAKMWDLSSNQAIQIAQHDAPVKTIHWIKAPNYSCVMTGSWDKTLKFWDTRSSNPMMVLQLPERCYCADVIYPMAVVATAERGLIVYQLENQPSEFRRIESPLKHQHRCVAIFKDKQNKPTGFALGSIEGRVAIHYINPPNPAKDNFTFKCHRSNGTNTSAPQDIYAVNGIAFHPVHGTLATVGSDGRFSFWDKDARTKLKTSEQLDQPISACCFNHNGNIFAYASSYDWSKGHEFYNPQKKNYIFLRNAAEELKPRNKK
UniProt P78332: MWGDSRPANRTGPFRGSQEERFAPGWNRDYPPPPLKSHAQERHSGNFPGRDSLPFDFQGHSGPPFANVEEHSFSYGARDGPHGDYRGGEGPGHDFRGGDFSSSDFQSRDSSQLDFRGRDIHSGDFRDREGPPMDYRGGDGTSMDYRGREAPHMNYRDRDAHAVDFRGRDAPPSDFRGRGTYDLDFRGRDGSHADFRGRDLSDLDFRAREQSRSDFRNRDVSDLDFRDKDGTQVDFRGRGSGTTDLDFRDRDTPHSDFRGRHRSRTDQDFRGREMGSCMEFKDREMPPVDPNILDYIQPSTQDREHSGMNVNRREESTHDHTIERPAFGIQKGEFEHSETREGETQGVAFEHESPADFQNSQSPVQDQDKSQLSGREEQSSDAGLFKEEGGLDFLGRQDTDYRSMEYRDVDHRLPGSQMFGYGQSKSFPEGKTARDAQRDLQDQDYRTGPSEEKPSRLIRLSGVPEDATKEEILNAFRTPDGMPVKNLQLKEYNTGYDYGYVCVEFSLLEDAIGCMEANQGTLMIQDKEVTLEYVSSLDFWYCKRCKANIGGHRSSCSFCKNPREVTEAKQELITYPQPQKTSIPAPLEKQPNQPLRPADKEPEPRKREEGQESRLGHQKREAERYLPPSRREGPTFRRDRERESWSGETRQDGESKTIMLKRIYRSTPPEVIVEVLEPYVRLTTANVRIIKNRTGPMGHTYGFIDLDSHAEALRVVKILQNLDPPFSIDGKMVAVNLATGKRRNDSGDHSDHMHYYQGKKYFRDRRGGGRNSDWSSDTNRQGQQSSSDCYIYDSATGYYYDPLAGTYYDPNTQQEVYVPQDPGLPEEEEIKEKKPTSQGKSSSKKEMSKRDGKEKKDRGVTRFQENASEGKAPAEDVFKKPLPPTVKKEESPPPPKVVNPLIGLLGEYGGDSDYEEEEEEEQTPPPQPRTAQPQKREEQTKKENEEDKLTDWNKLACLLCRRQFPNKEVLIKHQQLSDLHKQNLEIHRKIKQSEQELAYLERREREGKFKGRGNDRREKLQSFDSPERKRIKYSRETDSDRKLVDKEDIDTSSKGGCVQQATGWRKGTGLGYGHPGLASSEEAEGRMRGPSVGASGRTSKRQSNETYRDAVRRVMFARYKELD
UniProt P84022, whole entry, looked up: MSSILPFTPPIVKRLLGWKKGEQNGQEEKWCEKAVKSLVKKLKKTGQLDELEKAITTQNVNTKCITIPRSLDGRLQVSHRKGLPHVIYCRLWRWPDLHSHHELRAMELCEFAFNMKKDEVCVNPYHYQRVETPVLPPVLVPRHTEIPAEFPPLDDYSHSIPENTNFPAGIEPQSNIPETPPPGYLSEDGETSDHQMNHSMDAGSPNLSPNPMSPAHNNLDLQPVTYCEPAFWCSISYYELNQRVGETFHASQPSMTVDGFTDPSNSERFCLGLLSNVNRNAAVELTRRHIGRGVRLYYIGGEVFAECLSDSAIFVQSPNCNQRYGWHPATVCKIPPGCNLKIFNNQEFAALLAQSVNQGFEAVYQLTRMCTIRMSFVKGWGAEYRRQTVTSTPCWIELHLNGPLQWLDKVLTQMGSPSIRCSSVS

Target	NP40-soluble protein abundance (concentration: 0.1mM)	NP40-soluble protein abundance (concentration: 0.5mM)
UniProt P61970	0.99 ± 0.023	1.01 ± 0.041
STX17 (UniProt P56962)	1.01 ± 0.023	0.997 ± 0.052
UniProt P61244 and related entries	0.941 ± 0.058	0.921 ± 0.087
UniProt Q01518 and related entries	1.02 ± 0.027	1.02 ± 0.06
UniProt Q00536 and related entries	0.926 ± 0.04	0.95 ± 0.036
UniProt P78356	0.995 ± 0.034	1 ± 0.038
LMO4 (UniProt P61968)	0.999 ± 0.046	1 ± 0.035
UniProt P62753	1.057 ± 0.0091	1.02 ± 0.047
UniProt P62263	1.01 ± 0.087	1.02 ± 0.051
EXOSC10 (UniProt Q01780)	1 ± 0.014	1.037 ± 0.0071
UniProt P63000 and related entries	0.964 ± 0.046	1.01 ± 0.029
UniProt Q01432-5	0.987 ± 0.012	1.02 ± 0.041
ITGA1 (UniProt P56199)	1.01 ± 0.023	1.01 ± 0.021
UniProt P61086 and related entries	0.988 ± 0.038	0.973 ± 0.041
UniProt P61106	1.01 ± 0.067	1.05 ± 0.031
UniProt P62241 and related entries	1.02 ± 0.032	0.992 ± 0.044
UniProt P78362 and related entries	0.935 ± 0.025	0.952 ± 0.018
UniProt P61604 and related entries	0.878 ± 0.086	0.979 ± 0.13
UniProt Q00653 and related entries	1.01 ± 0.0085	0.988 ± 0.057
FOXK2 (UniProt Q01167)	1.01 ± 0.022	0.972 ± 0.035

Target	NP40-soluble protein abundance (concentration: 0.1mM)	NP40-soluble protein abundance (concentration: 0.5mM)
SRP54 (UniProt P61011)	1.02 ± 0.032	1 ± 0.024
UniProt Q03933 and related entries	1.01 ± 0.04	1.03 ± 0.065
FKBP3 (UniProt Q00688)	0.964 ± 0.021	1.09 ± 0.1
UniProt Q04760 and related entries	0.992 ± 0.056	1.02 ± 0.043
MRPS10 (UniProt P82664)	1.041 ± 0.0092	1.06 ± 0.0024
UniProt Q05469 and related entries	0.999 ± 0.031	0.996 ± 0.029
PAFAH1B2 (UniProt P68402)	0.971 ± 0.013	1 ± 0.032
UniProt Q02040	1 ± 0.041	0.961 ± 0.029
UniProt P61221	0.974 ± 0.022	0.927 ± 0.052
NOP14 (UniProt P78316)	0.971 ± 0.012	0.996 ± 0.049
UniProt P84090	1.01 ± 0.068	1.02 ± 0.074
UniProt P98095 and related entries	0.996 ± 0.022	1.02 ± 0.045
PPP1CA (UniProt P62136)	1.017 ± 0.0043	1.03 ± 0.015
UniProt P83876	0.991 ± 0.023	0.998 ± 0.016
UniProt Q01196-11|Q01196-8|Q01196 and related entries	0.993 ± 0.037	1.01 ± 0.038
UniProt P62750	1.04 ± 0.016	1.01 ± 0.012
UniProt P83916	0.994 ± 0.063	1.03 ± 0.022
FKBP1A (UniProt P62942)	1 ± 0.026	1.03 ± 0.066
UniProt P68371	1.08 ± 0.16	0.991 ± 0.053
GTF2B (UniProt Q00403)	0.995 ± 0.034	0.981 ± 0.042

At a glance, part of the list above:
Target	NP40-soluble protein abundance (concentration: 0.1mM)	NP40-soluble protein abundance (concentration: 0.5mM)
SRP54 (UniProt P61011)	1.02 ± 0.032	1 ± 0.024
UniProt Q03933 and related entries	1.01 ± 0.04	1.03 ± 0.065
FKBP3 (UniProt Q00688)	0.964 ± 0.021	1.09 ± 0.1
UniProt Q04760 and related entries	0.992 ± 0.056	1.02 ± 0.043
MRPS10 (UniProt P82664)	1.041 ± 0.0092	1.06 ± 0.0024
UniProt Q05469 and related entries	0.999 ± 0.031	0.996 ± 0.029
PAFAH1B2 (UniProt P68402)	0.971 ± 0.013	1 ± 0.032
UniProt Q02040	1 ± 0.041	0.961 ± 0.029
UniProt P61221	0.974 ± 0.022	0.927 ± 0.052
NOP14 (UniProt P78316)	0.971 ± 0.012	0.996 ± 0.049
UniProt P84090	1.01 ± 0.068	1.02 ± 0.074
UniProt P98095 and related entries	0.996 ± 0.022	1.02 ± 0.045
PPP1CA (UniProt P62136)	1.017 ± 0.0043	1.03 ± 0.015
UniProt P83876	0.991 ± 0.023	0.998 ± 0.016

Further records

Target	NP40-soluble protein abundance (concentration: 0.1mM)	NP40-soluble protein abundance (concentration: 0.5mM)
PRKCQ (UniProt Q04759)	1.04 ± 0.054	1.03 ± 0.052
UniProt P82970	0.893 ± 0.016	0.951 ± 0.06
MRPS36 (UniProt P82909)	1 ± 0.048	1.05 ± 0.02
UniProt P78563 and related entries	0.9962 ± 0.0078	1 ± 0.021
UniProt P63313	1.03 ± 0.017	0.993 ± 0.067
UniProt P62714	0.987 ± 0.036	1 ± 0.051
UniProt P56381	1 ± 0.035	1.05 ± 0.16
SLC7A5 (UniProt Q01650)	0.98 ± 0.079	0.953 ± 0.046
MRPS35 (UniProt P82673)	1.03 ± 0.042	1.04 ± 0.069
GSTO1 (UniProt P78417)	1.01 ± 0.063	1.01 ± 0.094
UniProt P61088	1.02 ± 0.049	1.039 ± 0.0086
UniProt Q02224 and related entries	0.958 ± 0.0099	0.998 ± 0.05
UniProt P62072	0.997 ± 0.034	0.977 ± 0.039
UniProt P78406 and related entries	1.02 ± 0.032	1.02 ± 0.018
UniProt Q08170	1.03 ± 0.043	1.01 ± 0.031
UniProt P62857	1.02 ± 0.052	0.992 ± 0.081
UniProt Q06787 and related entries	0.975 ± 0.024	1.01 ± 0.015
UniProt P78332 and related entries	1.02 ± 0.037	1.03 ± 0.036
XIAP (UniProt P98170)	1.01 ± 0.038	0.992 ± 0.02
UniProt P84022	1 ± 0.016	1.03 ± 0.028

From the supplement of paper PMC6411743
